Test results: doi:10.1101/534271
Results are given in words; binding and its absence hold for the method and conditions named. In cells and extracts the contact can be indirect. Some entries that bind do so weakly or less than the wild type.

Chains of the proteins cited; added tags and fusions are not shown.
UniProt Q07243: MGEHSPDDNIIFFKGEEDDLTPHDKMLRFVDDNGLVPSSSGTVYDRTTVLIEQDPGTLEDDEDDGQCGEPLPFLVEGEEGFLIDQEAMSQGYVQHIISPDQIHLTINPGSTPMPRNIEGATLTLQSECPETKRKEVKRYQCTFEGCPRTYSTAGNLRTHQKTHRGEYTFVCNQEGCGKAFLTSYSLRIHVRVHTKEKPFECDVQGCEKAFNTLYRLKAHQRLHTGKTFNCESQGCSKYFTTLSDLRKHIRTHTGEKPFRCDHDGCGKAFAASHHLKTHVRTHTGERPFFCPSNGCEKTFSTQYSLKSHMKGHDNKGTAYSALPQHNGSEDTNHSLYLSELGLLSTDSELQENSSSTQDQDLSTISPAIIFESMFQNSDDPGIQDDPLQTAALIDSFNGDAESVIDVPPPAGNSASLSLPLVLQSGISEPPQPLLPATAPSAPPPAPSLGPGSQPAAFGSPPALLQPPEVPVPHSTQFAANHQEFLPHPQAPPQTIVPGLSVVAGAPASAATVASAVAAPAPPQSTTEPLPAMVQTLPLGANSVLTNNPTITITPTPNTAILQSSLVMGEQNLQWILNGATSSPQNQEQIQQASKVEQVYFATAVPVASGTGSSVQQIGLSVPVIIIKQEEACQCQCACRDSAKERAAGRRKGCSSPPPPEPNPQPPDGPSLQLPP
UniProt P10085: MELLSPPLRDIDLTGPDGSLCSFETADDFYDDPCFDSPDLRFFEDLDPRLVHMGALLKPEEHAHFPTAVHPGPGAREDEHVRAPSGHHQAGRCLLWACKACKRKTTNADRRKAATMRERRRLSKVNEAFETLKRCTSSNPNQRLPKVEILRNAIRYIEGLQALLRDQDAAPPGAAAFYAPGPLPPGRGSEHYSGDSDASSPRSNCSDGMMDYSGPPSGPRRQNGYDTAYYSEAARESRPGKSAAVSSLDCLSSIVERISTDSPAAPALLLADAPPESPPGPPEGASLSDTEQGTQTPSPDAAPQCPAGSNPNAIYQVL

Biological target: MTF1 (mouse (endogenous in primary myoblasts from mouse satellite cells)) (UniProt Q07243)
Test: co-IP

binding: binds
Substance: MyoD (from UniProt P10085 1-318)
